Data: publication PMC10484734, “TLK1-mediated RAD54 phosphorylation spatio-temporally regulates Homologous Recombination Repair” (Nucleic Acids Research, 2023)
No constants are given. Whether binding was seen depends on the method and setting. In cells and extracts the contact can be indirect. Some binding calls cover weakened binding; strength is not graded here.

Protein sequences, listed by entry. Tags and fused reporters are not part of them.
UniProt Q9UKI8: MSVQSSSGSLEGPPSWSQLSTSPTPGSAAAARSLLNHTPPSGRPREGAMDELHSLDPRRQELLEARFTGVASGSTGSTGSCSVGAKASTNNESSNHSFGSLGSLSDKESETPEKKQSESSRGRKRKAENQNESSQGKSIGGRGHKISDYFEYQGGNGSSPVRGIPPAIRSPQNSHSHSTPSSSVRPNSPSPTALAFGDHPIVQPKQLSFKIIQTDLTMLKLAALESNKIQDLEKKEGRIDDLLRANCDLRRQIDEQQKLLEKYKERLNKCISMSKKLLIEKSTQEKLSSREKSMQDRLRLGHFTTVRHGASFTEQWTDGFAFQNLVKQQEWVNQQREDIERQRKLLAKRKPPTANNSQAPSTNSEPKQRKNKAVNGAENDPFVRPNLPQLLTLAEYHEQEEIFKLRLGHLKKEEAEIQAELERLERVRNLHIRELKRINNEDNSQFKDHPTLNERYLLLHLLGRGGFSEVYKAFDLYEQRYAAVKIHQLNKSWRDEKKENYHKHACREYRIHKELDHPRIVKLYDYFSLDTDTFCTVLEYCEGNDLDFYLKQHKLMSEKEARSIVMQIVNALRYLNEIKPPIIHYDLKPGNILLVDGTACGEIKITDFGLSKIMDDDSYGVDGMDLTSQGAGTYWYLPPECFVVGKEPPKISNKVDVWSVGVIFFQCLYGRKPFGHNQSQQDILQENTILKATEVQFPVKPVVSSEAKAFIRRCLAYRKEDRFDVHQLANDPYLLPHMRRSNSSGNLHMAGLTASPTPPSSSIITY

Target: T1, endogenous RAD54 of HeLa cells (human (endogenous in HeLa)) (UniProt Q92698)
T1 sequence: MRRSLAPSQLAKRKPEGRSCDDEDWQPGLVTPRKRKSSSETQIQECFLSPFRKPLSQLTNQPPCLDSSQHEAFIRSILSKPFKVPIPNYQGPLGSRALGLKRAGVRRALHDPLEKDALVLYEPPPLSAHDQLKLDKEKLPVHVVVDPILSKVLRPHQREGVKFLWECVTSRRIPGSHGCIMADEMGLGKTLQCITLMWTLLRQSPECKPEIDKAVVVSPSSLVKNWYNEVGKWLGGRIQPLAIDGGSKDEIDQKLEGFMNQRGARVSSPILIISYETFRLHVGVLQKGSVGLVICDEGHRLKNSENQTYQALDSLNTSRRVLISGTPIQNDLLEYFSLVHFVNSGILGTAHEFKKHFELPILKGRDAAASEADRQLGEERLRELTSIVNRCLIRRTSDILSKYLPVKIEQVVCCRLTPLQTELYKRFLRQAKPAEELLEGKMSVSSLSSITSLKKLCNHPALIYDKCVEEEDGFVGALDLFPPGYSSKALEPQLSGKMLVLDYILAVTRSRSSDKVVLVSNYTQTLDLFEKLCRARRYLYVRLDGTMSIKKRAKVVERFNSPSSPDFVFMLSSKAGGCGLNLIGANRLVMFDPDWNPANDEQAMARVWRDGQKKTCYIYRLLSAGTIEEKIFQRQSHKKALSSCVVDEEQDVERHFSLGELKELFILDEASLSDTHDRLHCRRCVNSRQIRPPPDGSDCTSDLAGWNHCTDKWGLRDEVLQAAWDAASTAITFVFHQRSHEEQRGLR
Assay: co-IP; RAD54 antibody (sc-166730) or mouse IgG isotype on Protein A/G agarose; HeLa lysates in RIPA buffer, 1 mg total protein, overnight at 4°C; cells unirradiated or treated with IR and recovered 0.5-12 h

In the case of “endogenous TLK1 of HeLa cells (from UniProt Q9UKI8 1-766) (enzyme)”, the binding is reported as “binds”.
